Library screening results

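Assay on Mycobacterium tuberculosis, filed only as a heat shock assay from Cornell; the read-out is not stated. The concentration is filed as 10 mM, unlikely as a test dose, so the dose is not known. The record gives no direction; compounds that gave an IC50 in retests scored well above the rest, so higher reads as stronger inhibition. Size under these conditions: about 69,000 compounds, about 930 of them at 50% or above in at least one test.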

Results are given as percent effect.
The controls that fix the scale are not given in the record; negative values are as filed.
Compounds were drawn at random from those tested, without regard to their results.

Compound	percent effect
COC1COC2(CCN(Cc3ccccc3Cl)CC2)C1.O=C(O)C(F)(F)F (stereo not drawn)	-10.31%
CN(C)c1cc(C(=O)N2CCCCC2CNS(C)(=O)=O)ccn1 (stereo not drawn)	3.292%
CSc1ccc(C(=O)N2CC(=O)N(Cc3cccs3)CC(O)C2)cc1 (stereo not drawn)	29.81%
CCC(C)n1c(SCC(=O)N2CCOCC2)nc2cc(C)[nH]c2c1=O (stereo not drawn)	-0.709%
Cc1csc(CN(CC2CCCO2)C(=O)c2occc2C)n1 (stereo not drawn)	-13.94%
CN1CC(=O)N(c2cccnc2)CC12CCN(C(=O)c1cccn1C)C2.O=C(O)C(F)(F)F.O=C(O)C(F)(F)F (stereo not drawn)	-6.739%
O=C(CCc1cc2n(n1)CCCNC2)NCCCSC1CCCCC1	-0.1877%
Cn1cc(CN2CCc3c(COCc4ccncc4)cncc3C2)cn1	-12.7%
OC(CNCCn1cccn1)c1cccc(Br)c1 (stereo not drawn)	-19.47%
O=C(O)C(F)(F)F.[H][C@@]12CNCC[C@]1([H])OC[C@H](C(=O)NCCc1cccs1)C2	0.5431%
CS(=O)(=O)N(Cc1ccon1)c1cccc(Br)c1	-35.84%
O=C(NCc1cccnc1)N1CCc2ncnc(C3CC3)c2CC1.O=C(O)C(F)(F)F	-19.72%
CN(C)[C@@H]1CCN(c2ncc(F)cn2)[C@H]1Cc1cccnc1.O=C(O)C(F)(F)F.O=C(O)C(F)(F)F	-43.05%
Cc1ccc(N2CC[C@H](OCC3CC3)[C@@H]2Cc2cnn(C)c2)nn1	0.7406%
CC(C)CSCCCNC(=O)C1CCC1	0.5867%
Cc1nnc(CN(Cc2ccc(Cl)c(Cl)c2)C(C)C)o1	12.41%
COc1ccccc1OCCN1CCC(N2CCNC2=O)CC1	17.42%
CC(C)(C)NC(=O)CNC(=O)CCc1ccccc1Br	9.108%
Cc1cccc(OCCC(=O)N(C)CCC#N)c1C	2.967%
CCOCCCC(=O)NCC(c1ccccc1)N1CCc2sccc2C1 (stereo not drawn)	-22.29%
CSCCC1CC(=O)Nc2cc(O)c(C)cc21 (stereo not drawn)	39.11%
O=C1CC(NS(=O)(=O)c2ccc3ccccc3c2)CN1 (stereo not drawn)	13.07%
Cc1cc(C(=O)NC2(c3ccc(Br)cc3)CC2)n(C)n1	8.964%
Cc1cnc2c(c1NCc1ccccn1)c(=O)n(C)c(=O)n2C	-9.454%
COc1ccc2c(c1)CC(NCc1cccc(NC(C)=O)c1)CC2 (stereo not drawn)	19.04%
Cc1cccc(C(Nc2nccc(C)n2)C2CC2)n1 (stereo not drawn)	-16.24%
Cc1cc(N2CCN(C3CCOCC3)CC(C(=O)N(C)C)C2)ncn1 (stereo not drawn)	14.36%
CN(Cc1cnn(C)c1)C(=O)c1ccc(Cl)c(N2CCNC2=O)c1	9.147%
O=C(NCc1nnc2ccccn12)N1CCOC(c2cccs2)C1 (stereo not drawn)	1.944%
CCn1ccnc1CN1C[C@@H](CN2CCCC2)[C@@H](CO)C1	-8.769%
CCCS(=O)(=O)N1CCC2(CC1)CC(=O)N(CCCc1ccccc1)C2	-21.22%
CN1CCN(Cc2cn3c(n2)CN(C(=O)N2CCCC2)CC3)CC1	8.004%
FC1(F)CCN(Cc2ccccn2)CC12CCN(c1cnccn1)C2.O=C(O)C(F)(F)F.O=C(O)C(F)(F)F.O=C(O)C(F)(F)F (stereo not drawn)	-1.297%
CN(CCO)C[C@@H]1CN(Cc2ccccc2C#N)C[C@@H]1CO	-1.571%
O=C(O)C(F)(F)F.[H][C@@]12CN(Cc3cccs3)C[C@@]1([H])N(CC1CC1)C(=O)CO2	12.21%
CCn1nc(C)cc1C(=O)NCc1nc(C)cc(C)n1	14.85%
CN(C)Cc1ccnc(C2CN(Cc3nccs3)CCO2)n1 (stereo not drawn)	-14%
CC(=O)NC[C@]1(O)CCN(C(=O)c2ccc3c(c2)OCO3)C[C@H]1O	-9.482%
CCn1cc(CN2CCC3(CC2)c2ccccc2CC3O)cn1 (stereo not drawn)	14.37%
CC(C(=O)N1CCCC1)n1nc(-c2cccs2)cc(N)c1=O (stereo not drawn)	-4.273%
Fc1ccc(-c2nnc(CN3CCOC(Cn4cncn4)C3)o2)cc1 (stereo not drawn)	9.17%
Cc1cc(SCC(=O)O)nc2nn(CC(F)F)c(C)c12	-4.879%
CC(Cc1cnccn1)NC(=O)c1cccc(CC2CCNCC2)c1 (stereo not drawn)	3.371%
CNC(=O)CCNC(=O)c1ccccc1N1CCOCC1	-5.162%
CCCS(=O)(=O)N[C@H]1CN(c2ncccc2C(N)=O)C[C@@H]1C(C)C	-0.6068%
O=C(Cn1nc2c(cc1=O)CSCC2)NC(Cc1ccccc1)C(=O)O (stereo not drawn)	-9.844%
O=C(CCn1cncn1)Nc1ccc(F)cc1OCC1CC1	-2.172%
CCSc1cc(C(=O)NCc2ccc(C(=O)NC)cc2)ccn1	19.41%
O=C(c1ccccn1)N1CCN(c2cnnc(N3CCCC3)c2)CC1	-26.13%
Cc1nn(C)cc1-c1ccnc(N(C)Cc2ccon2)n1	3.557%
Cn1nnc2cc(C(=O)N3CCC(Nc4cccnn4)CC3)ccc21	-11.93%
CN1CCC(C)(CNC(=O)c2ccc(SCc3cccnc3)cc2)CC1	-9.881%
CC(=O)Nc1ncc(S(=O)(=O)Nc2ccc3c(c2)OCCO3)s1	18.37%
Cc1nc(C)n(CC2CCCN(CC(=O)Nc3cc(C)on3)C2)n1 (stereo not drawn)	22.22%
O=C(CC1CCCO1)Nc1ccc2c(ccn2CCN2CCOCC2)c1 (stereo not drawn)	3.659%
COc1ccc(-c2cc(C3CCOC3)c(C#N)c(N)n2)cn1 (stereo not drawn)	-5.007%
O=C(O)C(F)(F)F.O=C(O)C(F)(F)F.[H][C@]12C[C@H](C(=O)NC)N(C(C)=O)[C@@]1([H])CN(Cc1cccnc1OC)C2	-6.106%
O=c1c(Cc2ccccc2)c(O)ccn1CCc1ccccc1	12.82%
Cc1cnc(NC(=O)NCCOc2ncccc2Cl)s1	24.82%
CC(=O)N1CCc2c(nc(N(C)C)nc2NCc2cccs2)C1	-2.548%
CC(Cn1cccn1)NCCS(=O)(=O)c1ccc(Cl)cc1 (stereo not drawn)	-21.56%
CCN(CC)CCC(=O)N1CCc2c(nc(N(C)C)nc2N(C)C)C1	-5.991%
Fc1ccc(-c2c[nH]c([C@@H]3COCCN3)n2)cc1	-16%
CCc1ncc(CN2CCC(CCc3ccccc3)CC2)cn1	-5.256%
CCc1cc(C)nc(N2CCN(C(C)c3nc(C)no3)CC2)n1 (stereo not drawn)	10.1%
Cc1csc(NC(=O)CN2CCc3c(nc(C4CC4)n3C)C2)n1	-2.508%
Cn1cc(CC2CC(=O)N(Cc3ccc(OC(F)F)cc3)C2=O)cn1 (stereo not drawn)	6.843%
Cc1ccccc1CN1CCN(Cc2nccn2C)CC1	15.46%
Cc1nn(C)c(Cl)c1C1CCCN1C(=O)c1ccc(O)nc1 (stereo not drawn)	-8.779%
Cc1n[nH]c(C)c1NC(=O)CN1CCN(c2nccs2)C(C)C1 (stereo not drawn)	-1.33%
CC1=Nc2c(c(=O)[nH]n2C(C)C)C(c2ccc(F)c(F)c2)S1 (stereo not drawn)	8.981%
Cc1cc(C)nc(Nc2cc(C)nc(C3CCN(C(=O)CO)C3)n2)n1 (stereo not drawn)	-21.32%
Cc1nnc(N2CCC(CN(C)C(C)C)CC2)c(C#N)c1C	-25.82%
Cc1ccc(CNC(=O)N2CCCC(NS(C)(=O)=O)C2)cc1 (stereo not drawn)	4.909%
O=C(NCCc1ccncc1)c1cccc(S(=O)(=O)N[C@@H]2CCNC2)c1	-18.13%
COc1ccc(CCNC(=O)C2CC2)c(Cl)c1	20.33%
Cn1cc(CCCNC(=O)NCC(O)c2ccsc2)cn1 (stereo not drawn)	-15.09%
O=C(NCc1cc[nH]n1)NCC(c1ccccc1Cl)N1CCCC1 (stereo not drawn)	1.188%
Cn1nnn(-c2ccc(NS(=O)(=O)c3ccc(Br)cc3)cc2)c1=O	-17.31%
CN1CCN(CC2CC2)C(=O)C12CCN(C(=O)CC(F)(F)F)CC2.O=C(O)C(F)(F)F	5.441%
O=C(NC[C@H]1OC[C@@H](NC2CCC2)[C@@H]1O)c1cccs1	0.4701%
[H][C@@]12COC[C@]1([H])[C@@H](OCc1cccnc1)CN2C(=O)C1CCOCC1	-19.46%
CCc1ccc(S(=O)(=O)N2Cc3c(CN(C)C)nn(C)c3C2)cc1.O=C(O)C(F)(F)F	16.88%
O=C(NCCCc1ccncc1)C1CCCN(Cc2ccco2)C1 (stereo not drawn)	-7.82%
O=C(Nc1ccc(Cl)cc1)c1nn(C2CCS(=O)(=O)C2)c2c1CCCC2 (stereo not drawn)	-11.64%
COC(=O)c1ccc(NC(C)c2ccc3c(c2)CCC(=O)N3)nn1 (stereo not drawn)	-0.4305%
O=C(Cn1cc(-c2ccccc2)ncc1=O)Nc1nccs1	-2.709%
Cl.[H][C@]12CCCN[C@@]1([H])CN(C(=O)C(C)C)C2	-10.32%

Data taken from ChEMBL document CHEMBL3988442, “University of Dundee, Small-Polar-MMV Screening Library” (2021).